Results: US9074014B2 (Ipsen Pharma S.A.S., priority 2008, dated 2015)
Where no end group is shown, it is not given here. [ ]: non-standard residue; d: D form. The star is where a group is joined. Desaminotyrosyl = O=C(CCc1ccc(O)cc1)*; NMeY = CN[C@@H](Cc1ccc(O)cc1)C(=O)O; ΔPro = O=C(O)[C@@H]1C=CCN1; Ac6c = NC1(C(=O)O)CCCCC1; Nle = CCCC[C@H](N)C(=O)O; X1 = CCCN1C(=O)CC(*)C1=O; Ac5c = NC1(C(=O)O)CCCC1; Aib = CC(C)(N)C(=O)O

Assay: Fmoc solid-phase peptide synthesis; Pre-loaded Fmoc-Gln(Trt)-Wang resin (0.59 mmole/g; Novabiochem); Rink amide MBHA resin for amides; HBTU/DIPEA (HBTU, HOBt, DIPEA for first residue)
Conditions: whole synthesis, analytical HPLC, 250x4.6 mm C18 (Phenomenex), 2-80% acetonitrile (0.1% TFA) over 30 minutes, scale 0.1 mmole

Substance	crude HPLC purity
H-Y[Aib]EGTF[Ac6c]SDYSIAMDKIHQQDFVNWLLAQKGKKNDWKHNIC(X1)Q-OH	34%

Same assay, conditions: whole synthesis, scale 0.1 mmole

Substance	crude mass	isolated mass
H-Y[Aib]EGTF[Ac6c]SDYSIAMDKIHQQDFVNWLLAQKGKKNDWKHNIC(X1)Q-OH	approximately 500 mg	15 mg

Assay: general procedure: Fmoc solid-phase peptide synthesis; Pre-loaded Fmoc-Gln(Trt)-Wang resin (0.59 mmole/g; Novabiochem); Rink amide MBHA resin for amides; HBTU/DIPEA (HBTU, HOBt, DIPEA for first residue)
Conditions: whole synthesis, analytical HPLC, 250x4.6 mm C18 (Phenomenex), 2-80% acetonitrile (0.1% TFA) over 30 minutes, scale of the general procedure 0.1 mmole

Substance	final HPLC purity
H-[NMeY][Aib]EGTFISDY[Ac5c]IA[Nle]DKIHQQDFVNWLLAQKGKKNDWKHNITQ-OH	99.90%
Y[Ac5c]EGTF[Ac5c]SDYSIA[Nle]DKIHQQDFVNWLLAQK-NH2	99.90%
Y[Aib]EGTF[Ac5c]SDYSIA[Ac5c]DKIHQQDFVNWLLAQKGKKNDWKHNITQ-OH	99.00%
Desaminotyrosyl-AEGTFISDYSI[Aib]MDKIHQQDFVNWLLAQKGKKNDWKHNITQ-OH	99.90%
YAPGTFISDY[Ac5c]IA[Ac6c]DKIHQQDFVNWLLAQKGKKNDWKHNITQ-OH	99.90%
Y[Aib]EGTF[Ac6c]SDYSIA[Nle]DKIHQQDFVNWLLAQKGKKNDWKHNITQ-OH	99.00%
Y[Ac6c]EGTF[Ac6c]SDYSIA[Nle]DKIHQQDFVNWLLAQK-NH2	99.90%
Y[Aib]EGTFISDY[Aib]IA[Ac6c]DKIHQQDFVNWLLAQKGKKNDWKHNITQ-OH	99.00%
Y[Aib]EGTFISDY[Ac5c]IA[Nle]DKIHQQDFVNWLLAQK-NH2	99.90%
Y[Aib]EGTFISDY[Ac5c]IA[Ac6c]DKIHQQDFVNWLLAQKGKKNDWKHNITQ-OH	99.00%
YA[ΔPro]GTFISDYSI[Aib][Nle]DKIHQQDFVNWLLAQKGKKNDWKHNITQ-OH	99.90%
(4Hyp^3, A6c^14)hGIP(1-42)-OH	99.90%
